Results published in paper PMC11022886.

Chains of the proteins cited; added tags and fusions are not shown.
UniProt Q9R1P4: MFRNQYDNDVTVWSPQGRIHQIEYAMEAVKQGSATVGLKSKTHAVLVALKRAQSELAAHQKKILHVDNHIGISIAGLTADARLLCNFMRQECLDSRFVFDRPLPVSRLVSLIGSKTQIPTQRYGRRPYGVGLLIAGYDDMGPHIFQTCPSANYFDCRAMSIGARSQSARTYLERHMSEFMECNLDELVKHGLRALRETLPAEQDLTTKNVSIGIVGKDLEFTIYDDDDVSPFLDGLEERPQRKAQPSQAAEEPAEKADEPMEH
UniProt Q9Z2U1: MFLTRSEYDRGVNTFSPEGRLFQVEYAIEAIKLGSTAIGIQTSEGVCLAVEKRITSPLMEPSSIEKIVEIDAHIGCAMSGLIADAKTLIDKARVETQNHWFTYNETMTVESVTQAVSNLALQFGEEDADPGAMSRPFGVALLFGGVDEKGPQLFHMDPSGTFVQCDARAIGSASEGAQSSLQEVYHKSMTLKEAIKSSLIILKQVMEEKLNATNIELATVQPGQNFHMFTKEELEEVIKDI
UniProt Q9QUM9: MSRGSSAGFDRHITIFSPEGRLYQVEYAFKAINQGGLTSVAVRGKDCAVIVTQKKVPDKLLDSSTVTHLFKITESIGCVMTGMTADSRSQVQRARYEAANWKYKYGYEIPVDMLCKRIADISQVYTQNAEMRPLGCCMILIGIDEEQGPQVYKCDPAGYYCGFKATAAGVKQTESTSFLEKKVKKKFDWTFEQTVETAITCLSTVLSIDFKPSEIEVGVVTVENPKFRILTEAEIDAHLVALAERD

T1: endogenous 3x-FLAG tagged MIDN (midnolin) (mouse (endogenous in splenic B cells and splenocytes)) (UniProt Q3TPJ7)
T1 sequence: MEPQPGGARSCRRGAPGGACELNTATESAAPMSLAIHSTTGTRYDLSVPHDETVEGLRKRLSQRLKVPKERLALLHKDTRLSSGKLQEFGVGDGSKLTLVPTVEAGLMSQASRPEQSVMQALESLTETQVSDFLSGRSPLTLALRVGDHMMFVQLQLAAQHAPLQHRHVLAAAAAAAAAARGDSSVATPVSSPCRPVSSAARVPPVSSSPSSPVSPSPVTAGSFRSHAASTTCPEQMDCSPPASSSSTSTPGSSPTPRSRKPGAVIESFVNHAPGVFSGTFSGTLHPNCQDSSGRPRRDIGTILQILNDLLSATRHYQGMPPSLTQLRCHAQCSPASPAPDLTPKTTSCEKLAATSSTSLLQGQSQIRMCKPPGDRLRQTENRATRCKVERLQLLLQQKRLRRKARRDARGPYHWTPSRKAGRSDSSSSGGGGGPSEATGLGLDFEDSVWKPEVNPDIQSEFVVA

B1: PSMD6 (19S subunit), endogenous (protein, UniProt Q99JI4 1-389)
chain: MPLENLEEEGLPKNPDLRIAQLRFLLSLPEHRGDAAVREELMAAVRENNMAPYYEALCKSLDWQMDVDLLSKMKKANEEELKRLDEELEDAEKNLGESEIRDAMMAKAEYLCQIGDKEGALTAFRKTYDKTVALGHRLDIVFYLLRIGLFYMDNDLITRNTEKAKSLIEEGGDWDRRNRLKVYQGLYCVAIRDFKQAAELFLDTVSTFTSYELMDYKTFVTYTVYVSMIALERPDLREKVIKGAEILEVLHSLPAVRQYLFSLYECRYSVFFQSLAIVEQEMKKDWLFAPHYRYYVREMRIHAYSQLLESYRSLTLGYMAEAFGVGVDFIDQELSRFIAAGRLHCKIDKVNEIVETNRPDSKNWQYQETIKKGDLLLNRVQKLSRVINM
B2: PSMD7 (19S subunit), endogenous (protein, UniProt P26516 1-321)
chain: MPELAVQKVVVHPLVLLSVVDHFNRIGKVGNQKRVVGVLLGSWQKKVLDVSNSFAVPFDEDDKDDSVWFLDHDYLENMYGMFKKVNARERIVGWYHTGPKLHKNDIAINELMKRYCPNSVLVIIDVKPKDLGLPTEAYISVEEVHDDGTPTSKTFEHVTSEIGAEEAEEVGVEHLLRDIKDTTVGTLSQRITNQVHGLKGLNSKLLDIRSYLEKVASGKLPINHQIIYQLQDVFNLLPDASLQEFVKAFYLKTNDQMVVVYLASLIRSVVALHNLINNKIANRDAEKKEGQEKEESKKERKDDKEKEKSDAAKKEEKKEKK
B3: PSMD12 (19S subunit), endogenous (protein, UniProt Q9D8W5 1-456)
chain: MADGGSERADGRIVKMEVDYSATVDQRLPECEKLAKEGRLQEVIETLLSLEKQTRTASDMVSTSRILVAVVKMCYEAKEWDLLNENIMLLSKRRSQLKQAVAKMVQQCCTYVEEITDLPVKLRLIDTLRMVTEGKIYVEIERARLTKTLATIKEQNGDVKEAASILQELQVETYGSMEKKERVEFILEQMRLCLAVKDYIRTQIISKKINTKFFQEENTENLKLKYYNLMIQLDQHEGSYLSICKHYRAIYDTPCIQAESDKWQQALKSVVLYVILAPFDNEQSDLVHRISSDKKLEEIPKYKDLLKLFTTMELMRWSTLVEDYGVELRKGSSETPATDVFSSTEEGEKRWKDLKSRVVEHNIRIMAKYYTRITMKRMAQLLDLSVDESEAFLSNLVVNKTIFAKVDRLAGVINFQRPKDPNNLLNDWSQKLNSLMSLVNKTTHLIAKEEMIHNLQ

Each molecule was assayed against T1, endogenous 3x-FLAG tagged MIDN (midnolin) (mouse (endogenous in splenic B cells and splenocytes)) (assay: affinity purification with mass spectrometry; endogenous MIDN-3xFLAG precipitated with anti-FLAG M2 agarose beads (4 h, 4°C) from NP-40 lysates of splenic B cells or whole spleen of Midn^Flag/Flag mice, eluted with 3xFlag peptides, LC-MS/MS; WT mice without the tag as control; two experiments (B cells, spleen)).

binding, binds:
PSMA1 (20S subunit), endogenous (from UniProt Q9R1P4 1-263)
PSMA5 (20S subunit), endogenous (from UniProt Q9Z2U1 1-241)
PSMA6 (20S subunit), endogenous (from UniProt Q9QUM9 1-246)
B1
B2
B3

No constants are given. Whether binding was seen depends on the method and setting. Binding seen in cells or lysates may run through a third protein. A yes stands for co-enrichment or nearness to the bait. Other partners may have been found. Tags and fused reporters may be left off the sequences shown.
